Among the data in the supplement of paper PMC10735217 are TEAD-luciferase reporter activity values, retold here.

Counter-ions that a name gives are not always drawn. Some of the results follow. Single values are uncertain here, since repeats match poorly.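 The human kidney-derived cells carry a stably integrated construct of eight TEAD-binding elements driving luciferase, read by luminescence in a drug-repurposing library screen. A compound counts as a hit when its signal is more than five robust Z scores above the plate mean.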

This assay concerns HEK293A TEAD-LUC reporter. Nature of the assay: TEAD-luciferase reporter activity (YAP activation), robust Z score vs plate; higher = stronger YAP/TEAD activation. Conditions: 24 h. Background: A reporter such as luciferase makes a cellular process visible.

On to `CC(C)(C)NCC(O)COc1cccc2c1CCC(=O)N2` (configuration not stated) [Carteolol hydrochloride], for which the TEAD-luciferase reporter activity reads like this: (compound concentration: 200 nM) inactive: -0.494; (compound concentration: 2 uM) inactive: -0.494; (compound concentration: 10 uM) inactive: 2.62.
In the case of `N=C(NN)N(N)CC(=O)O`, the TEAD-luciferase reporter activity by setting is: (compound concentration: 200 nM) inactive: -1.13; (compound concentration: 10 uM) inactive: 0.324.
As to `C[N+](C)(C)CCOC(=O)CCCC[C@@H]1CCSS1` [alpha-Lipoic acid choline ester], the TEAD-luciferase reporter activity reads like this: (compound concentration: 200 nM) inactive: -2.08; (compound concentration: 2 uM) inactive: -0.895; (compound concentration: 10 uM) inactive: -0.566.
In the same order, the values of `O=c1c2c([nH]c3ccccc13)[C@@H](c1ccc3c(c1)CCO3)N(c1ncc(-c3ccccn3)cn1)C2` are inactive: -0.931, inactive: 0.753 and inactive: 0.124.
On to `CCN(CC)Cc1cc(Nc2ccnc3cc(Cl)ccc23)ccc1O` [Amodiaquine], for which the TEAD-luciferase reporter activity is, setting by setting: (compound concentration: 200 nM) inactive: 1.01; (compound concentration: 2 uM) inactive: -0.898; (compound concentration: 10 uM) inactive: 0.396.
In the same order, the values of `CN1CCC/C1=N\C(=N\c1ccccc1)N1CCOCC1` [Linogliride] are inactive: -0.269, inactive: -1.09 and inactive: 2.35.
For `N#Cc1c(N2C[C@@H]3NCCO[C@H]3C2)c(F)cc2c(=O)c(C(=O)O)cn(C3CC3)c12` [Finafloxacin hydrochloride] the same measures were inactive: -1.19, inactive: -0.724 and inactive: -1.91.
For `CCN(Cc1cccnc1)C(=O)c1ccc(Cl)c([C@]2(C)C(=O)N(Cc3ccc(OC)cc3OC)c3ccc(Cl)cc32)c1` the same measures were inactive: -1.7, inactive: -1.17 and inactive: -0.934.
With `CN1C(=O)CC[C@H]1C(=O)NCc1cccc(C(F)(F)F)c1Cl`, the TEAD-luciferase reporter activity (compound concentration: 200 nM) was inactive: 0.228, the TEAD-luciferase reporter activity (compound concentration: 2 uM) was inactive: -0.763 and the TEAD-luciferase reporter activity (compound concentration: 10 uM) was inactive: 0.0356.
In the same order, the values of `C[N+](C)(C)CCOC(=O)CCC(=O)OCC[N+](C)(C)C` [Suxamethonium chloride] are inactive: -2.74, inactive: -0.703 and inactive: -1.27.
Take `COc1cccc(-c2ccc(CN3CCCC(NC(=O)c4ccc(Cl)cc4)C3)cc2)c1` (configuration not stated): the TEAD-luciferase reporter activity was inactive: 1.98 (compound concentration: 200 nM) and inactive: -0.142 (compound concentration: 10 uM).
For `O=C(C1CCCN(c2nc3ncccc3o2)C1)N1CCCC1` (configuration not stated) the same measures were inactive: 0.12 and inactive: -0.873.
`Cc1ccc(C(=O)C(C)CN2CCCC2)cc1` (configuration not stated): the TEAD-luciferase reporter activity (compound concentration: 200 nM) is inactive: -0.367, the TEAD-luciferase reporter activity (compound concentration: 2 uM) was inactive: 2.57 and the TEAD-luciferase reporter activity (compound concentration: 10 uM) was inactive: -1.44.
In the same order, the values of `Cc1ccc2c(c1)CC(=O)c1cc(C(C)C(=O)O)ccc1O2` (configuration not stated) [Bermoprofen] are inactive: 0.00202, inactive: 3.75 and inactive: 0.81.
For `CCN(CC)c1ccc(C(=C2C=CC(=[N+](CC)CC)C=C2)c2ccc(S(=O)(=O)[O-])cc2S(=O)(=O)[O-])cc1` the same measures were inactive: -0.146, inactive: -0.675 and inactive: -0.87.
Turning to `O=C(/C=C/c1cccc(S(=O)(=O)Nc2ccccc2)c1)NO` [Belinostat (PXD101)], the TEAD-luciferase reporter activity reads like this: (compound concentration: 200 nM) inactive: 1.87; (compound concentration: 10 uM) active: 22.1.
Regarding `O=C(/C=C/c1cccc(S(=O)(=O)Nc2ccccc2)c1)NO` [belinostat], where the note is “compound concentration: 2 uM”, the TEAD-luciferase reporter activity was active: 9.73.
Take `COc1ccc(-n2[nH]c3c4c(ncc3c2=O)CCCCC4)cc1`: the TEAD-luciferase reporter activity by setting is: (compound concentration: 200 nM) inactive: -1.45; (compound concentration: 2 uM) inactive: -2.31; (compound concentration: 10 uM) inactive: 2.98.
For `COCCNCC(O)COc1ccc2c(c1)CCC(=O)N2` (configuration not stated) the same measures were inactive: 0.329, inactive: -0.263 and inactive: 3.73.
In the same order, the values of `OCCOCCOc1ccc(/C(=C(\CCCl)c2ccccc2)c2ccccc2)cc1` are inactive: -2.41, inactive: -0.673 and inactive: 1.42.
Turning to `COCCNCc1ccc(-c2cc3nccc(Oc4ccc(NC(=O)C5(C(=O)Nc6ccc(F)cc6)CC5)cc4F)c3s2)nc1`, the TEAD-luciferase reporter activity is inactive: -1.19 (compound concentration: 200 nM), inactive: -2.63 (compound concentration: 2 uM) and inactive: 0.851 (compound concentration: 10 uM).
In the same order, the values of `COc1ccc(/C=C/CCCCOc2cccc(OCCCCC(=O)O)c2CCC(=O)O)cc1` are inactive: -0.341, inactive: -1.49 and inactive: -0.244.
In the same order, the values of `CN(C)CCc1c[nH]c2ccc(CS(=O)(=O)N3CCCC3)cc12` [Almotriptan Malate] are inactive: -0.0981, inactive: -0.905 and inactive: -0.914.
For `O=C(N[C@H]1CCS[C@H]2CCC[C@@H](C(=O)O)N2C1=O)[C@H](S)Cc1ccccc1` [Omapatrilat] the same measures were inactive: -0.779, inactive: -0.933 and inactive: 0.0277.
For the compound `Cc1cc(=O)n(-c2ccccc2)n1C` [Phenazone], the TEAD-luciferase reporter activity runs as follows: (compound concentration: 200 nM) inactive: -1.71; (compound concentration: 2 uM) inactive: 1.08; (compound concentration: 10 uM) inactive: 1.67.
In the same order, the values of `CCc1c(C(=O)c2cc(C)cc(C)c2)n(CC2CC=CC2)c(=O)[nH]c1=O` are inactive: -0.304, inactive: 0.179 and inactive: -1.02.
